PubChem BioAssay AID1259254 | NCATS, 2017
Aim: 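Gene knock-downs that lead to re-replication, shown by excess G2 DNA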 (primary screen). System: human HCT116 colorectal cancer cells. Reagent: single siRNA against human genes. Time to read-out: 3 days. Read-out: 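Imaged Hoechst DNA stain sorts each cell into a cycle phase by DNA amount; per plate, G2 fraction set to 0% for non-targeting and 100% for GMNN siRNA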. Direction: G2 robust z-score and G2 cells, % of GMNN control: higher = more G2 cells, more excess DNA replication; raw share of cells in G2: higher = larger share of cells with G2 DNA content. Hit rule: 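Active siRNAs have a G2 robust z of 5 or more median absolute deviations over the median, which in these data means about 38% or higher of GMNN control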.
The whole screen tested about 59,000 reagents; below is a part drawn at random. About 1,550 of all reagents (2.6%) were called active. 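G2 share is only a proxy for re-replication; each gene was hit by three separate siRNAs, and active genes were retested.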 Raw values vary from plate to plate and are shown uncorrected. Entries without a mark were called inactive. Reagents against one gene are numbered here. Not given: the amount of reagent.

target gene,reagent,G2 robust z-score,"G2 cells, % of GMNN control",raw share of cells in G2 (%)
NAB2 (GeneID 4665),1,-0.0658,2.5,4.26
NAB2 (GeneID 4665),2,0.0305,3.18,6.33
NAB2 (GeneID 4665),3,0.551,6.84,6.93
HBA1 (GeneID 3039),1,-0.155,1.88,6.4
HBA1 (GeneID 3039),2,-0.77,-2.45,3.3
HBA1 (GeneID 3039),3,4.08,31.7,16.6
LRP11 (GeneID 84918),1,-0.442,-0.141,4.02
LRP11 (GeneID 84918),2,0.172,4.18,4.31
LRP11 (GeneID 84918),3,3.27,25.9,11.2
PRDM8 (GeneID 56978),1,1.33,12.4,9.22
PRDM8 (GeneID 56978),2,4.03,31.3,19.4
PRDM8 (GeneID 56978),3,-0.603,-1.28,2.63
PTK2 (GeneID 5747),1,6.16 (active),46.3,20.9
PTK2 (GeneID 5747),2,-0.515,-0.658,5.19
PTK2 (GeneID 5747),3,0.177,4.22,5.51
RPS26P40 (GeneID 338611),1,1.33,12.3,8.23
RPS26P40 (GeneID 338611),2,7.45 (active),55.4,27.5
RPS26P40 (GeneID 338611),3,0.253,4.75,6.1
NFIA (GeneID 4774),1,-0.547,-0.88,2.9
NFIA (GeneID 4774),2,-1.29,-6.14,2.99
NFIA (GeneID 4774),3,1.57,14,11
MICU1 (GeneID 10367),1,-1.01,-4.15,2.15
MICU1 (GeneID 10367),2,-0.829,-2.86,4.71
MICU1 (GeneID 10367),3,-0.233,1.32,3.89
COCH (GeneID 1690),1,0.771,8.39,7.96
COCH (GeneID 1690),2,1.39,12.8,9.65
COCH (GeneID 1690),3,-0.949,-3.71,2.82

Records listed so far marked active (2):
target gene,reagent,G2 robust z-score,"G2 cells, % of GMNN control",raw share of cells in G2 (%)
PTK2 (GeneID 5747),1,6.16 (active),46.3,20.9
RPS26P40 (GeneID 338611),2,7.45 (active),55.4,27.5

Additional records follow.
target gene,reagent,G2 robust z-score,"G2 cells, % of GMNN control",raw share of cells in G2 (%)
LDB2 (GeneID 9079),1,-0.617,-1.37,3.07
LDB2 (GeneID 9079),2,-1.6,-8.3,2.29
LDB2 (GeneID 9079),3,-0.341,0.569,3.58
PCDHGB6 (GeneID 56100),1,-0.572,-1.06,4.06
PCDHGB6 (GeneID 56100),2,-1.16,-5.18,2.17
PCDHGB6 (GeneID 56100),3,-0.891,-3.3,4.98
RAPGEFL1 (GeneID 51195),1,1.16,11.1,11
RAPGEFL1 (GeneID 51195),2,-1.19,-5.4,2.25
RAPGEFL1 (GeneID 51195),3,0.0622,3.41,5.11
RBM15B (GeneID 29890),1,-0.0512,2.61,4.84
RBM15B (GeneID 29890),2,-1.07,-4.57,2.67
RBM15B (GeneID 29890),3,3.71,29.1,19.3
SLC29A2 (GeneID 3177),1,-0.699,-1.95,3.49
SLC29A2 (GeneID 3177),2,-1.26,-5.9,3.44
SLC29A2 (GeneID 3177),3,0.862,9.03,8.33
MICAL1 (GeneID 64780),1,-0.232,1.33,4.71
MICAL1 (GeneID 64780),2,-0.822,-2.81,3.35
MICAL1 (GeneID 64780),3,2.51,20.7,14.2
SLX9 (GeneID 85395),1,-0.919,-3.5,2.6
SLX9 (GeneID 85395),2,-0.758,-2.37,2.26
SLX9 (GeneID 85395),3,0.0597,3.39,4
